Some results were stated once for a whole list of compounds, not compound by compound.
Target: T1, TYK2 (Homo sapiens, UniProt P29597, E957D)
T1 construct: host or cells: Ba/F3 (murine B lymphocytes)
Experiment: TYK2 kinase activity inhibition assay (Ba/F3-FL-TYK2-E957D cell proliferation, CellTiter-Glo)
Format: cell-based
Settings: Ba/F3-FL-TYK2-E957D cell IC50 relative to BMS-986165
Procedure: The TYK2 kinase gene was introduced into wild-type murine-derived B lymphocytes (BaF3) to construct the Ba/F3-FL-TYK2-E957D stable cell line.
In this experiment, the inhibitory effect of the compounds on the proliferation of Ba/F3-FL-TYK2-E957D cells were tested, apoptosis was detected, and the IC50 value was calculated. The inhibitory activity of the compounds against TYK2 kinase was evaluated based on the IC50 value.
The tested compounds, powder and stored at room temperature, were prepared into 10 mM stock solution with DMSO and stored at −20° C. away from light for use.
Compounds were prepared into dilute solutions which was 1000 times of the final concentration. The compound was prepared into 20-times of the final concentration by diluting the compound with culture medium. 2 ul of 1000-times compound was added to per well to 98 ul of culture medium.
Cells (provided by Sundia Pharmaceutical Technology (Shanghai) Co., Ltd.) were resuspended and counted using an automated cell counter. The cell suspension was diluted to the desired density based on BaF3 seeding density of 2000 cells per well. Each well was plated with 95 ul of cells and incubated at 37° C. for stable equilibrium. 5 ul of 20-times compound was added to each well, with the wells to which the same volume of DMSO was added as a control.
The cell plate was equilibrated to room temperature. 40 ul CellTiter-Glo® Reagent was added to each well, shaken for 2 minutes and allowed to stand for 10 minutes. Detected with SpectraMax Paradigm.
• (1) IC50 was calculated using GraphPad Prism 5. • (2) % Inh=(Max signal−Compound signal)/(Max signal−Min signal)×100. • (3) Max signal was the positive control well with only the same volume of DMSO as the compound. • (4) Min signal was the negative control well with only the culture medium.

Chains of the proteins cited; added tags and fusions are not shown.
UniProt P29597, whole entry E957D: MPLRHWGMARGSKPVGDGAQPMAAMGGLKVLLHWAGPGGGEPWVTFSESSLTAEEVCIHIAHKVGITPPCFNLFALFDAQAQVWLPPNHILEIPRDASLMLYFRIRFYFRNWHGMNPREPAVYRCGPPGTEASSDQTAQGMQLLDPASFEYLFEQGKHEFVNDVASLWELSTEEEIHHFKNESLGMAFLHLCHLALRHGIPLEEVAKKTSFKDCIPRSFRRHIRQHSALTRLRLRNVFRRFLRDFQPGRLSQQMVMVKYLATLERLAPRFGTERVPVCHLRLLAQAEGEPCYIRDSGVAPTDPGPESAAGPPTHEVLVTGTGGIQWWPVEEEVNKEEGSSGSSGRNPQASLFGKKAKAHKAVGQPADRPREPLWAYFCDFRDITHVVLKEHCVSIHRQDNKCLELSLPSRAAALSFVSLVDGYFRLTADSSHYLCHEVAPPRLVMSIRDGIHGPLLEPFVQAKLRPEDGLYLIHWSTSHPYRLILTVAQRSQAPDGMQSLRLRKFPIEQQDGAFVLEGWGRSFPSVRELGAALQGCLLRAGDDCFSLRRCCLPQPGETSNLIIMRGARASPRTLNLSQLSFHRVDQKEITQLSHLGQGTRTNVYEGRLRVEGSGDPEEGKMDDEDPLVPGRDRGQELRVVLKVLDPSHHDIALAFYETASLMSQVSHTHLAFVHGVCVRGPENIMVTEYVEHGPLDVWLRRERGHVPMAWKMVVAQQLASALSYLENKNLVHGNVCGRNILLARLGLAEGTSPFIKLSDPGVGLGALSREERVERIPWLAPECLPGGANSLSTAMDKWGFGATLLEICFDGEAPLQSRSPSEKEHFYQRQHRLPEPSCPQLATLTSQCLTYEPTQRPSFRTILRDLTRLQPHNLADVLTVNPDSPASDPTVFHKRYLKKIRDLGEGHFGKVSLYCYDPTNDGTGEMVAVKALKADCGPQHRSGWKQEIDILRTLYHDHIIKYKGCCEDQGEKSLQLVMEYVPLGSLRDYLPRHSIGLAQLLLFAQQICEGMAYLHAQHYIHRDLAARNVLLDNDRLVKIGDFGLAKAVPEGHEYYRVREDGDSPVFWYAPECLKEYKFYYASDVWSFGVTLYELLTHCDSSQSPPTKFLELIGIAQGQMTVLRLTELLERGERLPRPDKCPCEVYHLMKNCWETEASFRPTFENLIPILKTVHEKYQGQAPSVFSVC

Structure (SMILES) | increase in TYK2 inhibitory activity over BMS-986165
[2H]C([2H])([2H])NC(=O)c1nnc(NC(=O)C2CC2)cc1Nc1nc(N)c(Cl)cc1[S@@](C)(=O)=NC [Example 28] | 4- to 7 fold
[2H]C([2H])([2H])N=[S@](C)(=O)c1cc(Br)c(N)nc1Nc1cc(NC(=O)C2CC2)nnc1C(=O)NC([2H])([2H])[2H] [Example 41, (R)-4-((6-amino-5-bromo-3-(S-methyl-N-(methyl-d3)sulfonylimino)pyridin-2-yl)amino)-6-(cyclopropylcarboxamide)-N-(methyl-d3)pyridazine-3-carboxamide] | 4- to 7 fold
[2H]C([2H])([2H])N=[S@](C)(=O)c1cc(I)c(N)nc1Nc1cc(NC(=O)C2CC2)nnc1C(=O)NC([2H])([2H])[2H] [Example 42, (R)-4-((6-amino-5-iodo-3-(S-methyl-N-(methyl-d3)sulfonylimino)pyridin-2-yl)amino)-6-(cyclopropylcarboxamide)-N-(methyl-d3)pyridazine-3-carboxamide] | 4- to 7 fold

Reference: patent US20250179022A1, “COMPOUND USED AS TYK2 INHIBITOR, PREPARATION METHOD THEREFOR, AND PHARMACEUTICAL USE THEREOF” (SHANGHAI ZHIGEN PHARMACEUTICAL & TECHNOLOGY CO. LTD., priority 2022, published 2025)
